Data reported in the supplement of paper PMC8612539.
Converted amounts (≈) assume the structure as drawn. The source gives many values for each of these; only a part stands here.

Tested on: Escherichia coli
Experiment: minimum inhibitory concentration (MIC)
Description: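 Broth microdilution MIC (Sensititre BOPO7F bovine plate, CLSI methods) of 19 antimicrobials against field isolates of P. multocida, M. haemolytica, H. somni (deep nasopharyngeal swabs) and E. coli, Enterococcus spp. (rectal swabs) from weaned dairy heifers. Incubation 16-24 h at 35 C. MIC is the lowest concentration preventing visible growth. Values with <= or > lie at the tested range limits. Trimethoprim-sulfamethoxazole is given as the trimethoprim component of a 1:19 mixture.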

C=C[C@]1(C)C[C@@H](OC(=O)CSCCN(CC)CC)[C@]2(C)[C@H](C)CC[C@]3(CCC(=O)[C@H]32)[C@@H](C)[C@@H]1O [Tiamulin]
Settings	minimum inhibitory concentration [µg/mL]
isolate (source animal id): 1	> 32
isolate (source animal id): 2	> 32
isolate (source animal id): 3	> 32
isolate (source animal id): 4	> 32
isolate (source animal id): 5	> 32
isolate (source animal id): 6	> 32
isolate (source animal id): 7	> 32
isolate (source animal id): 17	> 32
isolate (source animal id): 18	> 32
isolate (source animal id): 19	> 32
isolate (source animal id): 20	> 32
isolate (source animal id): 21	> 32
isolate (source animal id): 22	> 32
isolate (source animal id): 23	> 32
isolate (source animal id): 24	> 32
isolate (source animal id): 25	> 32
isolate (source animal id): 26	> 32
isolate (source animal id): 27	> 32
isolate (source animal id): 28	> 32
isolate (source animal id): 29	> 32
isolate (source animal id): 30	> 32
isolate (source animal id): 31	> 32
isolate (source animal id): 32	> 32
isolate (source animal id): 33	> 32
isolate (source animal id): 34	32 (≈ 64.8 µM)
isolate (source animal id): 35	> 32
isolate (source animal id): 36	> 32
isolate (source animal id): 37	> 32
isolate (source animal id): 38	> 32
isolate (source animal id): 39	> 32
isolate (source animal id): 40	32 (≈ 64.8 µM)
isolate (source animal id): 41	> 32
isolate (source animal id): 42	> 32
isolate (source animal id): 43	32 (≈ 64.8 µM)
isolate (source animal id): 44	> 32
isolate (source animal id): 45	> 32
isolate (source animal id): 46	32 (≈ 64.8 µM)
isolate (source animal id): 47	> 32
isolate (source animal id): 48	> 32
isolate (source animal id): 49	> 32
isolate (source animal id): 50	> 32
isolate (source animal id): 51	> 32
isolate (source animal id): 52	> 32
isolate (source animal id): 53	> 32
isolate (source animal id): 54	16 (≈ 32.4 µM)
isolate (source animal id): 55	> 32
isolate (source animal id): 56	> 32
isolate (source animal id): 57	> 32
isolate (source animal id): 58	> 32
isolate (source animal id): 59	> 32
isolate (source animal id): 60	32 (≈ 64.8 µM)
isolate (source animal id): 61	> 32
isolate (source animal id): 62	> 32
isolate (source animal id): 63	> 32
isolate (source animal id): 64	> 32
isolate (source animal id): 65	> 32
isolate (source animal id): 66	> 32
isolate (source animal id): 67	32 (≈ 64.8 µM)
isolate (source animal id): 68	> 32
isolate (source animal id): 69	> 32
isolate (source animal id): 70	> 32
isolate (source animal id): 71	> 32
isolate (source animal id): 72	> 32
isolate (source animal id): 73	> 32
isolate (source animal id): 74	> 32
isolate (source animal id): 75	> 32
isolate (source animal id): 76	> 32
isolate (source animal id): 77	> 32
isolate (source animal id): 78	> 32
isolate (source animal id): 79	> 32
isolate (source animal id): 80	> 32
isolate (source animal id): 81	> 32
isolate (source animal id): 82	> 32
isolate (source animal id): 83	> 32
isolate (source animal id): 84	> 32
isolate (source animal id): 85	> 32
isolate (source animal id): 86	> 32
isolate (source animal id): 87	32 (≈ 64.8 µM)
isolate (source animal id): 88	> 32
isolate (source animal id): 89	> 32
isolate (source animal id): 90	> 32
isolate (source animal id): 91	> 32
isolate (source animal id): 92	> 32
isolate (source animal id): 93	> 32
isolate (source animal id): 94	> 32
isolate (source animal id): 95	32 (≈ 64.8 µM)
isolate (source animal id): 96	> 32
isolate (source animal id): 97	> 32
isolate (source animal id): 189	32 (≈ 64.8 µM)
isolate (source animal id): 190	> 32
isolate (source animal id): 191	> 32
isolate (source animal id): 192	> 32
isolate (source animal id): 193	32 (≈ 64.8 µM)
isolate (source animal id): 194	> 32
isolate (source animal id): 195	> 32
isolate (source animal id): 196	> 32
isolate (source animal id): 197	> 32
isolate (source animal id): 198	32 (≈ 64.8 µM)
isolate (source animal id): 199	> 32
isolate (source animal id): 200	> 32
isolate (source animal id): 201	> 32
isolate (source animal id): 202	> 32
isolate (source animal id): 203	> 32
isolate (source animal id): 204	> 32
isolate (source animal id): 205	> 32
isolate (source animal id): 206	> 32
isolate (source animal id): 207	32 (≈ 64.8 µM)
isolate (source animal id): 208	32 (≈ 64.8 µM)
isolate (source animal id): 209	> 32
isolate (source animal id): 210	> 32
isolate (source animal id): 211	32 (≈ 64.8 µM)
isolate (source animal id): 212	32 (≈ 64.8 µM)
isolate (source animal id): 213	> 32
isolate (source animal id): 214	32 (≈ 64.8 µM)
isolate (source animal id): 215	> 32
isolate (source animal id): 216	> 32
isolate (source animal id): 217	16 (≈ 32.4 µM)
isolate (source animal id): 218	> 32
isolate (source animal id): 219	> 32
isolate (source animal id): 220	> 32
